Data published in patent US20230340119A1 (ARBELE, published 2023).
No constants are given. Whether binding was seen depends on the method and setting. Some binding calls cover weakened binding; strength is not graded here. For some assays here: Sequences can lack the tags named with a protein.

Protein sequences, listed by entry. Tags and fused reporters are not part of them. Residues count along the entry.
UniProt Q12884: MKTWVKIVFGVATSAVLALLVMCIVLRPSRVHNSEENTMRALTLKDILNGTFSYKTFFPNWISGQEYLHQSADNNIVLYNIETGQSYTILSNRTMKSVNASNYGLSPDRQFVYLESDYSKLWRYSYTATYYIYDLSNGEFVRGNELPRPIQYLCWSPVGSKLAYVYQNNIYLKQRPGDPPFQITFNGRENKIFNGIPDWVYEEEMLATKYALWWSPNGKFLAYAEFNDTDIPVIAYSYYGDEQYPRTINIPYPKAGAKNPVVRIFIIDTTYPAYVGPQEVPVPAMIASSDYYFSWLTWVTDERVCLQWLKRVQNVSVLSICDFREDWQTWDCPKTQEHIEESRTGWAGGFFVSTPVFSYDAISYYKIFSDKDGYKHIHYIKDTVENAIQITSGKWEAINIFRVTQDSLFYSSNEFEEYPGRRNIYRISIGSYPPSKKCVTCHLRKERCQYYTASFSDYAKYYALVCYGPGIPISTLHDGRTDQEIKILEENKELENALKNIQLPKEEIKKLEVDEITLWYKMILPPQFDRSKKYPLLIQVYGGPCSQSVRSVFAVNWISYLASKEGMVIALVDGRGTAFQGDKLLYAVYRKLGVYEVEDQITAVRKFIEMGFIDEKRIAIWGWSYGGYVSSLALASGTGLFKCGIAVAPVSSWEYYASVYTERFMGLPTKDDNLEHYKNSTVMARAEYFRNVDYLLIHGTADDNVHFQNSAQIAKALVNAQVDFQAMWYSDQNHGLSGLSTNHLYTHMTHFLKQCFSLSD
UniProt Q12864, residues 23-832: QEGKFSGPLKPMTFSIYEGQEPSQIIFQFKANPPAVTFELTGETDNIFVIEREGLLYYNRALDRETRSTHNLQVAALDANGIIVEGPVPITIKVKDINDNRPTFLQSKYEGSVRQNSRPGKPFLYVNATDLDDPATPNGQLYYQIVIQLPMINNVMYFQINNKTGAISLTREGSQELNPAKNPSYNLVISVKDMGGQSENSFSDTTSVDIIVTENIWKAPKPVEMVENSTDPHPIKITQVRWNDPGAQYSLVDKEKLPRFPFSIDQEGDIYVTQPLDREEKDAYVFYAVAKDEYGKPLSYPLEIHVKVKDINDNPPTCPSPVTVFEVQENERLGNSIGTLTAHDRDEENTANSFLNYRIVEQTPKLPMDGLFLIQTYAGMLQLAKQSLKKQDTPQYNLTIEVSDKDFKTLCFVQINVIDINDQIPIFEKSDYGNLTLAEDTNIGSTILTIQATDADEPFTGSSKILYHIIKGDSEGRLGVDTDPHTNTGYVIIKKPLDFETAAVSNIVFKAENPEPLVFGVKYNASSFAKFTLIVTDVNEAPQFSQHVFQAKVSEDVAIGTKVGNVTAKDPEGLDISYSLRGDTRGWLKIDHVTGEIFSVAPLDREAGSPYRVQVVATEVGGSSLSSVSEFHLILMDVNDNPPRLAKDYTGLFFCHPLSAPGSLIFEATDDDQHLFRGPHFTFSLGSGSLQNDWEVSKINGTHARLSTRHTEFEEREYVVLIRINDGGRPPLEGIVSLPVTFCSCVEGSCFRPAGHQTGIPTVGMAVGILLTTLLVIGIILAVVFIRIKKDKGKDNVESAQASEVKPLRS
UniProt P09758, residues 27-323: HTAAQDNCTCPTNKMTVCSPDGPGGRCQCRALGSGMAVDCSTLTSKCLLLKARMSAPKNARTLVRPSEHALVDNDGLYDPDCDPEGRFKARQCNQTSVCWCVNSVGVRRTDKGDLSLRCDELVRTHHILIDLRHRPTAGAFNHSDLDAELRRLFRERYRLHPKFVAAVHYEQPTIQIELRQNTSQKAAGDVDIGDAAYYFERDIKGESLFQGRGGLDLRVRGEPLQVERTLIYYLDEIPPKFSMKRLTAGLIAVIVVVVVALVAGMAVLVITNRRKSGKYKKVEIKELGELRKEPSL

Assays:
[1] = target: Fibroblast activation protein alpha (FAP) on DLD1-FAP cells (UniProt Q12884); experiment: flow cytofluorimetry on DLD1 cells electroporated with FAP mRNA (FAP TM DLD1) against Mock DLD1 and control
CDH17 on cells [2] = target: CDH17 on cells (UniProt Q12864); experiment: told of the NFAT reporter assay with Jurkat reporter cells and DLD1 cells
CDH17 on cells [3] = target: CDH17 on cells (UniProt Q12864); experiment: flow cytofluorimetry on HEK293 transfectants
TROP2 on cells = TROP2 on cells (UniProt P09758); experiment: flow cytofluorimetry on HEK293 transfectants
CDH17 on cells [4] = target: CDH17 on cells (UniProt Q12864); experiment: flow cytofluorimetry on HEK293 cells transfected with CDH17, 5 ug/ml, Fc G1G4G1 (panel C)

B1: hB2Ta (bispecific antibody)
light: DIQMTQSPSSLSASVGDRVTITCQASQDISNYLNWYQQKPGKAPKLLIYYTSRLESGVPSRFSGSGSGTDYTLTISSLQPEDFATYYCQQGNTLPWTFGQGTKVEIKGAPGGGTHTCPPCPAPELLGGPSVFLFPPKPKDTLMISRTPEVTCVVVDVSQEDPEVQFNWYVDGVEVHNAKTKPREEQFNSTYRVVSVLTVLHQDWLNGKEYKCKVSNKGLPSSIEKTISKAKGQPREPQVYTLPPSREEMTKNQVSLSCAVKGFYPSDIAVEWESNGQPENNYKTTPPVLDSDGSFFLVSKLTVDKSRWQQGNVFSCSVMHEALHNHYTQKSLSLSPGK
heavy: QVQLVQSGAEVKKPGASVKVSCKASGYSFTDYTMNWVRQAPGQGLEWMGVINPNHGISSYAQKFQGRVTMTRDTSTSTVYMELSSLRSEDTAVYYCVRRKISYDYDEGYAMDYWGQGTLVTVSSGGGGSGGGGSGGGGSDIVMTQSPDSLAVSLGERATINCKSSQNLLNSSNQKNYLAWYQQKPGQPPKLLVFFAATRESGVPDRFSGSGSGTDFTLTISSLQAEDVAVYYCQQHYSTPWTFGGGTKLEIKPAGGGGSEVQLVESGGGLVQPGGSLRLSCAASGYSFTGYTMNWVRQAPGKGLEWVALINPYKGVSTYNQKFKDRFTISVDKSKNTAYLQMNSLRAEDTAVYYCARSGYYGDSDWYFDVWGQGTLVTVSSGAPGGGTHTCPPCPAPELLGGPSVFLFPPKPKDTLMISRTPEVTCVVVDVSQEDPEVQFNWYVDGVEVHNAKTKPREEQFNSTYRVVSVLTVLHQDWLNGKEYKCKVSNKGLPSSIEKTISKAKGQPREPQVYTLPPSREEMTKNQVSLWCLVKGFYPSDIAVEWESNGQPENNYKTTPPVLDSDGSFFLYSKLTVDKSRWQQGNVFSCSVMHEALHNHYTQKSLSLSPGK
Question: B1 was tested. Which binding [1] did it give?
Answer: binds

B2: h10Ta-wt (bispecific antibody)
light: DIQMTQSPSSLSASVGDRVTITCRASQDIRNYLNWYQQKPGKAPKLLIYYTSRLESGVPSRFSGSGSGTDYTLTISSLQPEDFATYYCQQGNTLPWTFGQGTKVEIKGAPGGGTHTCPPCPAPELLGGPSVFLFPPKPKDTLMISRTPEVTCVVVDVSQEDPEVQFNWYVDGVEVHNAKTKPREEQFNSTYRVVSVLTVLHQDWLNGKEYKCKVSNKGLPSSIEKTISKAKGQPREPQVYTLPPSREEMTKNQVSLSCAVKGFYPSDIAVEWESNGQPENNYKTTPPVLDSDGSFFLVSKLTVDKSRWQQGNVFSCSVMHEALHNHYTQKSLSLSPGK
heavy: EVQLLESGGGLVQPGGSLRLSCAASGFTFSSYAMSWVRQAPGKGLEWVAVIDSNGGSTYYPDTVKDRFTISRDNSKNTLYLQMNSLRAEDTAVYYCSSYTNLGAYWGQGTLVTVSAGGGGSGGGGSGGGGSDIQMTQSPSSLSASVGDRVTITCRASQDISGYLNWLQQKPGKAIKRLIYTTSTLDSGVPSRFSGSGSGTDFTLTISSLQPEDFATYYCLQYASSPFTFGGGTKVEIKPAGGGGGSEVQLVESGGGLVQPGGSLRLSCAASGYSFTGYTMNWVRQAPGKGLEWVALINPYKGVSTYNQKFKDRFTISVDKSKNTAYLQMNSLRAEDTAVYYCARSGYYGDSDWYFDVWGQGTLVTVSSGAPGGGTHTCPPCPAPELLGGPSVFLFPPKPKDTLMISRTPEVTCVVVDVSQEDPEVQFNWYVDGVEVHNAKTKPREEQFNSTYRVVSVLTVLHQDWLNGKEYKCKVSNKGLPSSIEKTISKAKGQPREPQVYTLPPSREEMTKNQVSLWCLVKGFYPSDIAVEWESNGQPENNYKTTPPVLDSDGSFFLYSKLTVDKSRWQQGNVFSCSVMHEALHNHYTQKSLSLSPGK
notes: also called h10Ta with the parental Fv; h10Ta (wt anti-CD3 Fv)
Question: With B2 as the binder, how does the binding (CDH17 on cells [2]) read?
Answer: binds

B3: h8h10Te (possessing the parental anti-CD3 Fv) (protein)
light: DIQMTQSPSSLSASVGDRVTITCRASENIDNYLAWYQQKPGKVPKLLIYAATNLADGVPSRFSGSGSGTDFTLTISSLQPEDVATYYCQHYYSNQLTFGQGTKLEIKGGGGSGGGGSGGGGSEVQLVESGGGLVQPGGSLRLSCAASGFTFSTYTMSWVRQAPGKGLEWVANINSDGYNIYYSDSVKGRFTISRDNAKNSLYLQMNSLRAEDTAVYYCVRCSYYSYDYFDYWGQGTLVTVSSPAGGGGGSDIQMTQSPSSLSASVGDRVTITCRASQDIRNYLNWYQQKPGKAPKLLIYYTSRLESGVPSRFSGSGSGTDYTLTISSLQPEDFATYYCQQGNTLPWTFGQGTKVEIKGAPGGGTHTCPPCPAPELLGGPSVFLFPPKPKDTLMISRTPEVTCVVVDVSQEDPEVQFNWYVDGVEVHNAKTKPREEQFNSTYRVVSVLTVLHQDWLNGKEYKCKVSNKGLPSSIEKTISKAKGQPREPQVYTLPPSREEMTKNQVSLSCAVKGFYPSDIAVEWESNGQPENNYKTTPPVLDSDGSFFLVSKLTVDKSRWQQGNVFSCSVMHEALHNHYTQKSLSLSPGK
heavy: EVQLLESGGGLVQPGGSLRLSCAASGFTFSSYAMSWVRQAPGKGLEWVAVIDSNGGSTYYPDTVKDRFTISRDNSKNTLYLQMNSLRAEDTAVYYCSSYTNLGAYWGQGTLVTVSAGGGGSGGGGSGGGGSDIQMTQSPSSLSASVGDRVTITCRASQDISGYLNWLQQKPGKAIKRLIYTTSTLDSGVPSRFSGSGSGTDFTLTISSLQPEDFATYYCLQYASSPFTFGGGTKVEIKPAGGGGGSEVQLVESGGGLVQPGGSLRLSCAASGYSFTGYTMNWVRQAPGKGLEWVALINPYKGVSTYNQKFKDRFTISVDKSKNTAYLQMNSLRAEDTAVYYCARSGYYGDSDWYFDVWGQGTLVTVSSGAPGGGTHTCPPCPAPELLGGPSVFLFPPKPKDTLMISRTPEVTCVVVDVSQEDPEVQFNWYVDGVEVHNAKTKPREEQFNSTYRVVSVLTVLHQDWLNGKEYKCKVSNKGLPSSIEKTISKAKGQPREPQVYTLPPSREEMTKNQVSLWCLVKGFYPSDIAVEWESNGQPENNYKTTPPVLDSDGSFFLYSKLTVDKSRWQQGNVFSCSVMHEALHNHYTQKSLSLSPGK
Question: What does the source list for B3?
Answer: binding (CDH17 on cells [3]): binds; binding (TROP2 on cells): binds

B4: TriAx-A with h10v2 scFv, Fc G1G4G1 (bispecific antibody)
light: DIQMTQSPSSLSASVGDRVTITCQASQDISNYLNWYQQKPGKAPKLLIYYTSRLESGVPSRFSGSGSGTDYTLTISSLQPEDFATYYCQQGNTLPWTFGQGTKVEIKGAPGGGTHTCPPCPAPELLGGPSVFLFPPKPKDTLMISRTPEVTCVVVDVSQEDPEVQFNWYVDGVEVHNAKTKPREEQFNSTYRVVSVLTVLHQDWLNGKEYKCKVSNKGLPSSIEKTISKAKGQPREPQVYTLPPSREEMTKNQVSLSCAVKGFYPSDIAVEWESNGQPENNYKTTPPVLDSDGSFFLVSKLTVDKSRWQQGNVFSCSVMHEALHNHYTQKSLSLSPGK
heavy: EVQLLESGGGLVQPGGSLRLSCAASGFTFSSYAMSWVRQAPGKGLEWVAVIDSNGGSTYYPDTVKDRFTISRDNSKNTLYLQMNSLRAEDTAVYYCSSYTNLGAYWGQGTLVTVSAGGGGSGGGGSGGGGSDIQMTQSPSSLSASVGDRVTITCRASQDISGYLNWLQQKPGKAIKRLIYTTSTLDSGVPSRFSGSGSGTDFTLTISSLQPEDFATYYCLQYASSPFTFGGGTKVEIKPAGGGGGSEVQLVESGGGLVQPGGSLRLSCAASGYSFTGYTMNWVRQAPGKGLEWVALINPYKGVSTYNQKFKDRFTISVDKSKNTAYLQMNSLRAEDTAVYYCARSGYYGDSDWYFDVWGQGTLVTVSSGAPGGGTHTCPPCPAPELLGGPSVFLFPPKPKDTLMISRTPEVTCVVVDVSQEDPEVQFNWYVDGVEVHNAKTKPREEQFNSTYRVVSVLTVLHQDWLNGKEYKCKVSNKGLPSSIEKTISKAKGQPREPQVYTLPPSREEMTKNQVSLWCLVKGFYPSDIAVEWESNGQPENNYKTTPPVLDSDGSFFLYSKLTVDKSRWQQGNVFSCSVMHEALHNHYTQKSLSLSPGK
Question: For B4, which binding (CDH17 on cells [4]) is on record?
Answer: binds
